The supplement of paper PMC10338343
± gives the standard deviation. The entries are a selection whose mix differs from that of the whole data set. Many of these values have a large error.

Tested on: EfPiwi piRISC loaded with piRNA #1 (26 nt)
Experiment: pre-steady-state target cleavage rate (min^-1); guide: piRNA #1 5'p-UGAGGUAGUAGGUUGUAUAGUAUCCA; MIWI and MILI are mouse PIWI proteins and EfPiwi is from a freshwater sponge; tags in brackets are library labels; higher = faster piRNA-guided slicing of the target
Conditions: auxiliary factor: 500 nM Ephydatia muelleri Gtsf1
Summary of the method: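 Cleave-'n-Seq reactions paired 0.1 nM transcribed, DNA-blocked target RNA library with 1 nM active affinity-purified piRISC holding one synthetic guide, plus or minus 500 nM GTSF1 partner protein, in HEPES–potassium acetate buffer at 33 °C for 0–8 or 0–960 min. After sequencing of uncleaved targets and normalisation to depth and weakly complementary targets, the pre-steady-state cleavage rate was taken from a burst-and-steady-state fit. Three trials were pooled, and k3 was capped at 0.0001 min^-1.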

Sequence | pre-steady-state target cleavage rate
GGAGACCAUACUAAACAACCUACUACGUCA | 0.00226 ± 0.0033
GGAGACCCUACUAUACAACCUACUACCUCA | 0.153 ± 0.051
GGAGACCUAUCUAUACAACCUAGUUCCUCA | 0.00263 ± 0.0032
GGAGACCUUACUAUACAACCUACUUCCACA | 0.00082 ± 0.0026
GGAGAGGAUACUAUACAAGCUACUACCUGA | 0.00442 ± 0.0019
GGAGACCUAUCUAUACAACCUACUUCCUCA | 0.00328 ± 0.0036
GGAGACCUUACCUAUACAACCUACUACCUCA | 0.0117 ± 0.0057
GGAGACCUAACAAUACAACCUACUACCUGA | 0.00336 ± 0.0037
GGAGAGGAUACUAUACAACCUACUACCUA | 0.217 ± 0.081
GGAGACCUUAUUAUACAACCUACUACCUCA | 0.00416 ± 0.0043
GGAGACGAUUCUUUACAACCUACUACCUCA | 0.00312 ± 0.005
GGAGUGGAUACUAUACAAUCUACUACCUCA | 0.105 ± 0.038
GGAGACCUAUGAUAUGUUCGUACUACGUCA | 0.000451 ± 0.009
GGAGACCUUACUAUACAACCUACUACGACA | 0.00191 ± 0.0023
GGAGAGGAUACUAUACAACCUACUGCCUCA | 0.00919 ± 0.0038
GGAGACCUAUCUAUACAACCUCCUACCUCA | 0.00509 ± 0.0028
GGAGACCUUACUAUACAACCUACUACAUCA | 0.00197 ± 0.0022

2 entries drawn at random from the list so far, as already listed:
Sequence | pre-steady-state target cleavage rate
GGAGACCUAACAAUACAACCUACUACCUGA | 0.00336 ± 0.0037
GGAGAGGAUACUAUACAACCUACUACCUA | 0.217 ± 0.081
